The list does not hold the whole screen: it gathers tests that were run many times, whatever their T/C, doses with no T/C, and many T/C values between a quarter and a half above the control. Other doses and runs of a compound stand elsewhere. T/C is the treated group as % of the vehicle group. Some doses have a count of surviving animals in place of a T/C: the source holds a T/C of zero for them, seemingly a mark for toxic or unscored doses. Some doses without a T/C left all or most animals alive at the check, yet need not have been tolerated: the source hardly ever lists a survival T/C far under the control, and the zero likely stands for such cases as well. Counts of survivors are from the toxicity check (mostly the fifth day) where no day follows; animals may have died later. Schedules are NCI's codes, read here as Q, the interval in days (D) or hours (H), X, the number of doses. Some entries hold several experiments; the results are listed from low to high. For survival time, the PubChem record calls one and a half times the control and up active, and a quarter to a half above the control has no call in these data; cut-offs in other NCI protocols can differ. Some T/C values carry the count of animals alive at the toxicity check (mostly the fifth day); where none is given, no animal had died by that day.
Tested on: P388 leukemia ip, CD2F1 mice, survival T/C
Assay: NCI In Vivo Anticancer Drug Screen. Data for tumor model P388 Leukemia (intraperitoneal) in CD2F1 (CDF1) mice
Settings: T/C endpoint: median survival time, higher T/C = longer survival
[1] = dose: 100.0 mg/kg/injection, schedule: Q01DX009 (ip), vehicle: saline
[2] = dose: 200.0 mg/kg/injection, schedule: Q01DX009 (ip), vehicle: saline
[3] = dose: 200.0 mg/kg/injection, schedule: Q01DX005 (ip), vehicle: saline with Tween-80
[4] = dose: 400.0 mg/kg/injection, schedule: Q01DX009 (ip), vehicle: saline
[5] = dose: 50.0 mg/kg/injection, schedule: Q01DX005 (ip), vehicle: Klucel (hydroxypropylcellulose) (HPC)
[6] = dose: 200.0 mg/kg/injection, schedule: Q01DX005 (ip), vehicle: Klucel (hydroxypropylcellulose) (HPC)
[7] = dose: 200.0 mg/kg/injection, schedule: Q04DX002 (ip), vehicle: saline with Tween-80
[8] = dose: 400.0 mg/kg/injection, schedule: Q04DX002 (ip), vehicle: saline with Tween-80
[9] = dose: 50.0 mg/kg/injection, schedule: Q01DX009 (ip), vehicle: saline with Tween-80
[10] = dose: 100.0 mg/kg/injection, schedule: Q01DX009 (ip), vehicle: saline with Tween-80
[11] = dose: 200.0 mg/kg/injection, schedule: Q01DX009 (ip), vehicle: saline with Tween-80

## CCN(CC)CCOc1cccc2c1C(=O)c1ccccc1C2=O
[1]
  survivor count: 2 of 4
[2]
  survivor count: 1 of 6

## CCCCOC(=O)NC(=O)c1cc2cc(Cl)cc(Cl)c2oc1=O
[3]
  survivor count: 1 of 6

## C(=C\c1cc2ccc(C3=NCCN3)cc2o1)/c1cc2ccc(C3=NCCN3)cc2o1
dose: 100.0 mg/kg/injection, schedule: Q04DX003 (ip), vehicle: suspension in saline
  T/C: 127 % of control
dose: 200.0 mg/kg/injection, schedule: Q04DX003 (ip), vehicle: suspension in saline
  survivor count: 1 of 6
dose: 400.0 mg/kg/injection, schedule: Q04DX003 (ip), vehicle: suspension in saline
  survivor count: 1 of 6

## Oc1ccccc1O
[1]
  survivor count: 2 of 6
[2]
  survivor count: 0 of 6
[4]
  survivor count: 0 of 6
dose: 600.0 mg/kg/injection, schedule: Q01DX009 (ip), vehicle: saline
  survivor count: 0 of 6

## c1onc2cc3c(cc12)OCO3
dose: 0.78 mg/kg/injection, schedule: Q01DX009 (ip), vehicle: Klucel (hydroxypropylcellulose) (HPC)
  T/C: 125 % of control
dose: 3.13 mg/kg/injection, schedule: Q01DX009 (ip), vehicle: Klucel (hydroxypropylcellulose) (HPC)
  T/C: 130 % of control
dose: 6.25 mg/kg/injection, schedule: Q01DX009 (ip), vehicle: Klucel (hydroxypropylcellulose) (HPC)
  survivor count: 6 of 6

## O=P1(NCCCl)OCCCN1CCCl (stereo unspecified)
dose: 15.0 mg/kg/injection, schedule: Q01DX005 (ip), vehicle: saline
  T/C: 131 % of control
dose: 15.0 mg/kg/injection, schedule: Q01DX005 (iv), vehicle: saline
  T/C: 128 % of control
dose: 30.0 mg/kg/injection, schedule: Q01DX005 (ip), vehicle: saline
  T/C: 147 % of control
[4]
  survivor count: 6 of 6

## CCCCCCC[CH2][Sn]([F])([F])[CH2]CCCCCCC
dose: 200.0 mg/kg/injection, schedule: Q04DX003 (ip), vehicle: saline
  survivor count: 5 of 6
dose: 400.0 mg/kg/injection, schedule: Q04DX003 (ip), vehicle: saline
  survivor count: 0 of 6

## O=S(=O)(c1cccc(N=C=S)c1)c1cccc(N=C=S)c1
dose: 25.0 mg/kg/injection, schedule: Q01DX005 (ip), vehicle: Klucel (hydroxypropylcellulose) (HPC)
  T/C: 132 % of control [5 of 6 alive]
[5]
  T/C: 131 % of control
  survivor count: 0 of 6
dose: 100.0 mg/kg/injection, schedule: Q01DX005 (ip), vehicle: Klucel (hydroxypropylcellulose) (HPC)
  survivor count: 0 of 6
[6]
  survivor count: 0 of 6

## c1csc(SSc2nccs2)n1
[7]
  survivor count: 3 of 6
[8]
  survivor count: 0 of 6

## CN(C)CCC(=O)c1ccc(Cl)cc1Cl
[2]
  survivor count: 3 of 6

## CC(CN(C)C)C(/C=C/c1ccccc1)=N\Nc1ccccc1 (stereo unspecified)
dose: 120.0 mg/kg/injection, schedule: Q01DX005 (ip), vehicle: saline
  survivor count: 0 of 6
dose: 240.0 mg/kg/injection, schedule: Q01DX005 (ip), vehicle: saline
  survivor count: 0 of 6

## CN(Cc1ccc2nc(N)[nH]c(=O)c2c1)c1ccc(C(=O)NC(CCC(=O)O)C(=O)O)cc1 (stereo unspecified)
[3]
  survivor count: 3 of 6

## Nc1nc(N)n(N)c(=S)n1
dose: 200.0 mg/kg/injection, schedule: Q04DX003 (ip), vehicle: saline with Tween-80
  survivor count: 2 of 5

## COc1cc2c(c(OC)c1OC)-c1ccc(SC)c(=O)cc1[C@@H](NC(=O)CO)CC2
dose: 0.03 mg/kg/injection, schedule: Q01DX009 (ip), vehicle: other
  T/C: 134 and 137 % of control
dose: 0.05 mg/kg/injection, schedule: Q01DX009 (ip), vehicle: other
  T/C: 139 and 143 % of control
dose: 0.1 mg/kg/injection, schedule: Q01DX009 (ip), vehicle: other
  T/C: 139 % of control
dose: 0.78 mg/kg/injection, schedule: Q01DX009 (ip), vehicle: other
  survivor count: 0 of 6
dose: 0.8 mg/kg/injection, schedule: Q01DX009 (ip), vehicle: other
  survivor count: 5 of 6 and 6 of 6
dose: 1.56 mg/kg/injection, schedule: Q01DX009 (ip), vehicle: other
  survivor count: 0 of 6
dose: 3.13 mg/kg/injection, schedule: Q01DX009 (ip), vehicle: other
  survivor count: 0 of 6
dose: 6.25 mg/kg/injection, schedule: Q01DX009 (ip), vehicle: other
  survivor count: 0 of 6
dose: 12.5 mg/kg/injection, schedule: Q01DX009 (ip), vehicle: other
  survivor count: 0 of 6
dose: 25.0 mg/kg/injection, schedule: Q01DX009 (ip), vehicle: other
  survivor count: 0 of 6
dose: 50.0 mg/kg/injection, schedule: Q01DX009 (ip), vehicle: other
  survivor count: 0 of 6
dose: 100.0 mg/kg/injection, schedule: Q01DX009 (ip), vehicle: other
  survivor count: 0 of 6
dose: 200.0 mg/kg/injection, schedule: Q01DX009 (ip), vehicle: other
  survivor count: 0 of 6

## CCN1C(=O)C(=O)c2ccccc21
dose: 18.2 mg/kg/injection, schedule: Q01DX009 (ip), vehicle: saline
  survivor count: 5 of 5

## CCN(CC)C/C=C(/C)CCC=C(C)C
dose: 100.0 mg/kg/injection, schedule: Q04DX002 (ip), vehicle: saline with Tween-80
  survivor count: 0 of 6
[7]
  survivor count: 0 of 6
[8]
  survivor count: 0 of 6

## COc1c2occc2c(N=Cc2ccc([N+](=O)[O-])cc2)c2ccc(=O)oc12
dose: 3.0 mg/kg/injection, schedule: Q01DX005 (ip), vehicle: saline with Tween-80
  survivor count: 6 of 6
dose: 6.0 mg/kg/injection, schedule: Q01DX005 (ip), vehicle: saline with Tween-80
  survivor count: 6 of 6
dose: 12.5 mg/kg/injection, schedule: Q01DX005 (ip), vehicle: saline with Tween-80
  survivor count: 6 of 6
dose: 25.0 mg/kg/injection, schedule: Q01DX005 (ip), vehicle: saline with Tween-80
  survivor count: 6 of 6
dose: 50.0 mg/kg/injection, schedule: Q01DX005 (ip), vehicle: saline with Tween-80
  survivor count: 6 of 6

## Cn1cnc2c(F)ncnc21
[6]
  survivor count: 0 of 6

## CC[C@](C)(O)C(=O)O[C@H]1C(=O)O[C@@H]2C[C@H]3C(C)=CC(=O)[C@@H](O)[C@]3(C)[C@H]3[C@@]4(O)OC[C@]32[C@@H]1[C@@H](C)[C@H]4O
dose: 0.43 mg/kg/injection, schedule: Q01DX009 (ip), vehicle: saline with Tween-80
  T/C: 128 % of control
dose: 0.48 mg/kg/injection, schedule: Q01DX009 (ip), vehicle: saline with Tween-80
  T/C: 128 % of control
dose: 0.53 mg/kg/injection, schedule: Q01DX009 (ip), vehicle: saline with Tween-80
  T/C: 137 % of control
dose: 0.59 mg/kg/injection, schedule: Q01DX009 (ip), vehicle: saline with Tween-80
  T/C: 135 % of control
dose: 0.66 mg/kg/injection, schedule: Q01DX009 (ip), vehicle: saline with Tween-80
  T/C: 131 % of control
dose: 0.73 mg/kg/injection, schedule: Q01DX009 (ip), vehicle: saline with Tween-80
  T/C: 135 % of control
dose: 0.81 mg/kg/injection, schedule: Q01DX009 (ip), vehicle: saline with Tween-80
  T/C: 144 % of control
dose: 0.9 mg/kg/injection, schedule: Q01DX009 (ip), vehicle: saline with Tween-80
  T/C: 146 % of control [5 of 6 alive]
dose: 1.0 mg/kg/injection, schedule: Q01DX009 (ip), vehicle: saline with Tween-80
  T/C: 140 % of control

## CSC(=S)N/N=C(/C)CC(C)C
[9]
  survivor count: 1 of 6
[10]
  survivor count: 3 of 6
[11]
  survivor count: 0 of 6

## CCN(CC)CCCC(C)Nc1ccnc2cc(N(C)C)ccc12 (stereo unspecified)
[9]
  survivor count: 6 of 6
[10]
  survivor count: 0 of 6
[11]
  survivor count: 0 of 6

## CNC(=O)OCc1c(COC(=O)NC)c2n(c1C)CCS2(=O)=O
[3]
  survivor count: 6 of 6
dose: 400.0 mg/kg/injection, schedule: Q01DX005 (ip), vehicle: saline with Tween-80
  survivor count: 6 of 6

Source: PubChem BioAssay AID330 (DTP/NCI, 2004)
